Assay in all cases: ELISA, specificity panel of human B7 family proteins, antibody titrated
Assay [1] has as its target T1, Recombinant human B7-H3 (human) (UniProt Q5ZPR3).
T1 sequence: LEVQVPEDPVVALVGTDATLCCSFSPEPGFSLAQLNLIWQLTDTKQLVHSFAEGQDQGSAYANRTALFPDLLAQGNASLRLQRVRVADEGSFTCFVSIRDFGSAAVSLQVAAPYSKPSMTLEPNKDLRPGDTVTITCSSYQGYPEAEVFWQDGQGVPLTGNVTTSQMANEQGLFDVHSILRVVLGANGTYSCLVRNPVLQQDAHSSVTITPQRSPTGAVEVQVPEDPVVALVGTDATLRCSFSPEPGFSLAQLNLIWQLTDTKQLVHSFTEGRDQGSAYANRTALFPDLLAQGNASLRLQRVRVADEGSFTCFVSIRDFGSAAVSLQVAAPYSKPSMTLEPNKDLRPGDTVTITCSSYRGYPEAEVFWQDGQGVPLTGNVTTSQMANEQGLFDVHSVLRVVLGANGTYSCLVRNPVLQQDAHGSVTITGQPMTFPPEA

Protein sequences, listed by entry. Tags and fused reporters are not part of them.
UniProt Q9NZQ7: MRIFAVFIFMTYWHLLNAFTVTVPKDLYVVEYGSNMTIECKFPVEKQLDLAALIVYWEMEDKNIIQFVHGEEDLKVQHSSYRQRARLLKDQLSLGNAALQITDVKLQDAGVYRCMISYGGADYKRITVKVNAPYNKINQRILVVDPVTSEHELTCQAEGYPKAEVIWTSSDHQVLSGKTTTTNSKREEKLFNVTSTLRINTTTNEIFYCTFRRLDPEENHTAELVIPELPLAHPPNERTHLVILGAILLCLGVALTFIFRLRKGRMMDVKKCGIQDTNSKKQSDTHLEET

The target in another assay is PD-L1 (human) (UniProt Q9NZQ7).
The target of a further assay is T2, B7-H5.
T2 sequence: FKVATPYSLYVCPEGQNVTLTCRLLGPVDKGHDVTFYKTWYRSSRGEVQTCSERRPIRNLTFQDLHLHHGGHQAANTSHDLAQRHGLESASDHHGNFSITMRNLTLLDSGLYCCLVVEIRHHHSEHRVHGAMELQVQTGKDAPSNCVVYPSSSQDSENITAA

The target of the next assay is T3, B7-H6 (human) (UniProt Q68D85).
T3 sequence (single chain, looked up): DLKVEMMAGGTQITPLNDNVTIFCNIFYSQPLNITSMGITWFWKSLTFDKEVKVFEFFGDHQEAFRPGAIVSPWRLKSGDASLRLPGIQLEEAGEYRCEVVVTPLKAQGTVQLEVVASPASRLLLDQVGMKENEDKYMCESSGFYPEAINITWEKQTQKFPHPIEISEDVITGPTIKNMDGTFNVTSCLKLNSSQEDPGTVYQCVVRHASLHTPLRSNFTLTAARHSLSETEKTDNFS

The next assay has as its target T4, B7-H7.
T4 sequence: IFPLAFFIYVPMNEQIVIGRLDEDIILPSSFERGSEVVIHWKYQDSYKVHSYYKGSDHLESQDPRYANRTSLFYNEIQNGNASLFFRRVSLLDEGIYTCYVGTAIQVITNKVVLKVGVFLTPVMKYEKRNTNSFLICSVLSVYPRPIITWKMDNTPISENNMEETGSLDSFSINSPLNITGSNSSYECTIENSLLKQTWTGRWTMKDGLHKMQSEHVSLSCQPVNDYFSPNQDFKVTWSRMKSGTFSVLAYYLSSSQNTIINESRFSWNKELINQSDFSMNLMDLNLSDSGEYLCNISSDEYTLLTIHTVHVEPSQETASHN

For the next assay, the target named is T5, PD-L2 (human) (UniProt Q9BQ51).
T5 sequence (single chain, looked up): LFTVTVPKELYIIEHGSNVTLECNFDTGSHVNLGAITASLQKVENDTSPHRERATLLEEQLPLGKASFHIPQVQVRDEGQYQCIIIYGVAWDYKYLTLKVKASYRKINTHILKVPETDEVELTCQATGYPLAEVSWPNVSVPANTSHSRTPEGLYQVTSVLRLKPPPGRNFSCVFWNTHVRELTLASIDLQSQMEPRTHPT

The target in another assay is B7-1.
The target in a further assay is T6, B7-H2 (human) (UniProt O75144).
T6 sequence (single chain, looked up): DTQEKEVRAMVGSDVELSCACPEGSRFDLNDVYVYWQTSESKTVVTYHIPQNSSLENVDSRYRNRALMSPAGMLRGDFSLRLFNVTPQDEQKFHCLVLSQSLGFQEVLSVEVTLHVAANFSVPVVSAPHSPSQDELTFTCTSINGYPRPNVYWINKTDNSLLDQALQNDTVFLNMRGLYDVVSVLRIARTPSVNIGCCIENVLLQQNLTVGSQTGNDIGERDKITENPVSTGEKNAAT

A further assay concerns the target T7, B7-H4 (human) (UniProt Q7Z7D3).
T7 sequence (single chain, looked up): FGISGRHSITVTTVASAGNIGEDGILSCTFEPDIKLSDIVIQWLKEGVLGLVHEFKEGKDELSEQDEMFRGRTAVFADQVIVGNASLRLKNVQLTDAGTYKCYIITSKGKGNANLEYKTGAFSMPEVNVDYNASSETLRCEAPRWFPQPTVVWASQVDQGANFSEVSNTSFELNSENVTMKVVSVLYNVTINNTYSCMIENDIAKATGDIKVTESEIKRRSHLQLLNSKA

Substitutions are numbered along the chain they refer to. These are yes or no findings as the source states them, for the method shown. Some results given as binding are weak or reduced against the parent protein; the word gives no strength.

B1: SCT-Da250 (antibody, V domains shown)
VH: QGQMQQSGAELVKPGASVRLSCKTSGFTFSSFYISWLKQKPGQSLEWIAWIYAGPGYTSYNQKFTGKAQLTVDTSSSTAYMQFSSLTTEDSAIYYCARHVGRQRGYFDVWGAGTTVTVSS
VL: DIVMTQSHKFMSTSVGDRVSITCKASQDVSTAVAWYQQKPGQSPKLLIYSASYRYTGVPDHFTVSGSGTDFTFTISSVQAEDLAVYYCQQHYSTPWTFGGGTKLEIK
With B1, the binding entry in [1] is “binds”.

B2: SCT-Da333 (antibody, V domains shown)
VH: QVQLQQSGPELVRPGVSVKISCKGSGYTFTDYAVHWVKQSHAKSLEWIGVINTYSGNTYYNLHFKGKATMTVDKSSSTAYMELARLTSEDSAIYYCARRRGSHRDAYFDYWGQGTTLTVSS
VL: B1 VL with K24R, H61R
Take B2: the binding result in assay [1] is “binds”.

B3: SCT-Da192 (antibody, V domains shown)
VH: EVQLQQSGPELVKPGASVKISCKTSGYTFTEYTMHWVKQSHGKSLEWIGVINPNNGGTTYNQKFKGKATLTVDKSSSTAYMELRSLTSEDSAVYYCARPHSLLRLRREFDYWGQGTTLTVSS
VL: QIVLTQSPALMSASPGEKVTMTCSASSSVSYMYWYQQKPRSSPKPWIYLTSNLASGVPARFSGSGSGTSYSLTISSMEAEDAATYYCQQWSSNPLTFGAGTKLELK
With B3, the binding result in assay [1] is “binds”.

B4: SCT-Da148 (antibody, V domains shown)
VH: EVQLQQSGAELVKPGASVKLSCTASGVNIKDTYIHWVKQRPEQGLEWIGRIDPANGNRKYDPKFQGKATITADSSSNTAYLQLSSLTSEDTAVYYCARDGYYAPGYWGQGTTLTVSS
VL: DIVMTQSQKFMSTSVGDRVSVTCKASQNVGTDVAWYQQKPGQSPKLLIYSASYRFSGVPDRFTGSGSGTDFSLAISNVQSEDLAEYFCQQYNSYPYTFGGGAKLEIK
On to B4, for which the binding entry with PD-L1 (human) is listed as “no binding (tested: about 67 nM)”; with B7-H5, “no binding (tested: about 67 nM)”; with B7-H6 (human), “no binding (tested: about 67 nM)”; with B7-H7 it was “no binding (tested: about 67 nM)”; with PD-L2 (human), “no binding (tested: about 67 nM)”; in assay [1] it was “binds”. In addition, the binding entry with B7-1, with B7-H2 (human) and with B7-H4 (human) was “no binding (tested: about 67 nM)” in each case.

B5: SCT-Da182 (antibody, V domains shown)
VH: EVQLQQSGPELVKPGASMKISCKVSGFSFTGYTMNWVKQSHGKNLEWIGLINTYNGGTFYNQKFKAKATLTVDKSSSTAHMELLSLTSEDSAVYYCARSPGRYSMDYWGQGTSVTVSS
VL: DIVLTQSPASLAVSLGQRATISCKASQSVDYNGYSYLNWYQQKPGQPPKLLIYPASNLESGIPARFSGSGSGTDFTLNIHPVEEEDAATYYCQQSKEDPYTFGGGTKLEIK
For B5, the binding result in the assay with PD-L1 (human) is “no binding (tested: about 67 nM)”; in the assay with B7-H5, “no binding (tested: about 67 nM)”; with B7-H6 (human) it was “no binding (tested: about 67 nM)”; in the assay with B7-H7, “no binding (tested: about 67 nM)”; with PD-L2 (human), “no binding (tested: about 67 nM)”; in assay [1] it was “binds”. The binding entry in the assay with B7-1, with B7-H2 (human) and in the assay with B7-H4 (human) was “no binding (tested: about 67 nM)” each time.

These data come from US20220235134A1.
